The hits were mostly taken out for another list; the other results follow. Results filed as inconclusive are left out. Active and inactive are the calls of the source. Calls follow the shape of the dose curve; as a rule, active = well fitted activation curve with a large enough effect; inconclusive = small, poorly fitted or top-dose-only effect, or another doubt; inactive = no such curve, though single readings can be large or run the other way.
Assay: Primary qHTS for Identification of Small Molecule Activators of Huntingtin-Antisense Promoter Activity; also: nearly all actives have a fitted effect of over 55% in size
Conditions: HEK293 HTT-AS promoter firefly luciferase reporter (activity 0% = vehicle and -100% = no light), 24 h; at 116 µM (top of the series)
Excerpt: Assay Provider: Russell L. Margolis M.D.
Department Neurology, Johns Hopkins University School of Medicine, Baltimore, MD
Huntington's Disease (HD) is a neurodegenerative disorder caused by a CAG repeat expansion in exon 1 of huntingtin (HTT). While there are currently no disease-modifying treatments for HD, recent efforts have focused on development of nucleotide-based therapeutics to lower HTT expression. As an alternative to siRNA or oligonucleotide methods, we hypothesized that suppression of HTT expression might be accomplished by small molecules that either (1) directly decrease HTT expression by suppressing HTT promoter activity or (2) indirectly decrease HTT expression by increasing the promoter activity of HTT-AS, the gene antisense to HTT that appears to inhibit expression of HTT. […]
7; Detection; Luminescence; FLuc […]
1; High-throughput screening, measuring luminescence from a Hek293 luciferase reporter, was performed in 1,536 well white-walled tissue-culture treated plates. […]
4; Cells were then incubated for 24 hours at 37 degrees C prior to luminescence measurements.
5; In all cases, luminescence was measured using the Dual-Glo Luciferase Reporter Assay System (Promega) following the manufacturer's instructions. […]
7; Luminescence signal was obtained using the PerkinElmer ViewLux plate reader. […]

| SMILES | activity change, positive = activation |
| --- | --- |
| Nc1ccc(N)c([N+](=O)[O-])c1 | inactive: -33.8% |

Source: PubChem BioAssay AID1508624 (National Center for Advancing Translational Sciences (NCATS), 2021)
